According to PubChem BioAssay AID248 (DTP/NCI, 2004):
The list shows only some results of the screen, not a fair sample: it is rich in T/C values a quarter to a half above the control, in often repeated tests (any T/C) and in doses without a T/C. Other doses and runs of a compound stand elsewhere. T/C gives the treated animals as a percentage of the vehicle group. Some entries give survivors of the animals treated and no T/C: the source files T/C as zero there, which appears to mark a toxic dose or a test without result, not a measured value. Some survivor counts are full or nearly so, which does not show that the dose was tolerated: survival well below the control is almost never listed, so the zero probably covers shortened survival too. Counts of survivors are from the toxicity check (mostly the fifth day) where no day follows; animals may have died later. Schedules are NCI's codes, read here as Q, the interval in days (D) or hours (H), X, the number of doses. Some entries hold several experiments; their values stand side by side, smallest first. Where survival is the endpoint, the PubChem record calls one and a half times the control and up active, and a quarter to a half above the control has no call in these data; cut-offs in other NCI protocols can differ. Some T/C values are followed by the survivors on the day toxicity was checked, most often the fifth; where none is given, no animal had died by that day.

Tested on: L1210 leukemia ip in BDF1 mice, survival T/C
Test: NCI In Vivo Anticancer Drug Screen. Data for tumor model L1210 Leukemia (intraperitoneal) in B6D2F1 (BDF1) mice
Conditions: T/C endpoint: mean survival time, higher T/C = longer survival
[1] = dose: 100.0 mg/kg/injection, schedule: Q01DX001 (ip), vehicle: other
[2] = dose: 200.0 mg/kg/injection, schedule: Q01DX001 (ip), vehicle: other
[3] = dose: 200.0 mg/kg/injection, schedule: Q04DX003 (ip), vehicle: Klucel (hydroxypropylcellulose) (HPC)
[4] = dose: 400.0 mg/kg/injection, schedule: Q01DX001 (ip), vehicle: saline
[5] = dose: 400.0 mg/kg/injection, schedule: Q04DX003 (ip), vehicle: Klucel (hydroxypropylcellulose) (HPC)
[6] = dose: 400.0 mg/kg/injection, schedule: Q01DX001 (ip), vehicle: carboxymethylcellulose (CMC)
[7] = dose: 100.0 mg/kg/injection, schedule: Q04DX003 (ip), vehicle: saline
[8] = dose: 200.0 mg/kg/injection, schedule: Q04DX003 (ip), vehicle: saline
[9] = dose: 400.0 mg/kg/injection, schedule: Q04DX003 (ip), vehicle: saline
[10] = dose: 200.0 mg/kg/injection, schedule: Q01DX009 (ip), vehicle: saline with Tween-80
[11] = dose: 400.0 mg/kg/injection, schedule: Q04DX003 (ip), vehicle: saline with Tween-80
[12] = dose: 300.0 mg/kg/injection, schedule: Q01DX001 (ip), vehicle: saline

## O=C(O)C1C2C=CC(C2)C1C(=O)O.[Cu+2] (stereo not drawn)
dose: 25.0 mg/kg/injection, schedule: Q04DX003 (ip), vehicle: Klucel (hydroxypropylcellulose) (HPC)
  survivor count: 2 of 6
dose: 40.0 mg/kg/injection, schedule: Q01DX009 (ip), vehicle: Klucel (hydroxypropylcellulose) (HPC)
  survivor count: 0 of 6
dose: 50.0 mg/kg/injection, schedule: Q04DX003 (ip), vehicle: Klucel (hydroxypropylcellulose) (HPC)
  survivor count: 0 of 6
dose: 100.0 mg/kg/injection, schedule: Q01DX001 (ip), vehicle: Klucel (hydroxypropylcellulose) (HPC)
  survivor count: 0 of 6
dose: 200.0 mg/kg/injection, schedule: Q01DX001 (ip), vehicle: Klucel (hydroxypropylcellulose) (HPC)
  survivor count: 0 of 6
dose: 400.0 mg/kg/injection, schedule: Q01DX001 (ip), vehicle: Klucel (hydroxypropylcellulose) (HPC)
  survivor count: 0 of 6

## CC1=NNC(=O)C1(Br)Br
[1]
  survivor count: 0 of 6
[2]
  survivor count: 0 of 6
dose: 400.0 mg/kg/injection, schedule: Q01DX001 (ip), vehicle: other
  survivor count: 0 of 6

## C=CC(=O)c1c(O)cc(O)c2c1C(C)C(=O)O2 (stereo not drawn)
dose: 150.0 mg/kg/injection, schedule: Q01DX009 (ip), vehicle: Klucel (hydroxypropylcellulose) (HPC)
  survivor count: 4 of 6
[3]
  survivor count: 3 of 6
dose: 300.0 mg/kg/injection, schedule: Q01DX009 (ip), vehicle: Klucel (hydroxypropylcellulose) (HPC)
  survivor count: 1 of 6
[4]
  survivor count: 1 of 4
[5]
  survivor count: 5 of 6

## O=NN(CCCl)C(=O)Nc1ccc2c(c1)-c1ccccc1C2
dose: 177.0 mg/kg/injection, schedule: Q01DX001 (ip), vehicle: carboxymethylcellulose (CMC), evaluated on day 30
  T/C: 128 % of control
dose: 177.0 mg/kg/injection, schedule: Q01DX001 (ip), vehicle: carboxymethylcellulose (CMC), run until all animals had died
  T/C: 138 and 145 % of control
dose: 177.0 mg/kg/injection, schedule: Q01DX009 (ip), vehicle: carboxymethylcellulose (CMC)
  T/C: 149 % of control
dose: 266.0 mg/kg/injection, schedule: Q01DX001 (ip), vehicle: carboxymethylcellulose (CMC), evaluated on day 30
  T/C: 131 % of control
dose: 266.0 mg/kg/injection, schedule: Q01DX001 (ip), vehicle: carboxymethylcellulose (CMC), run until all animals had died
  T/C: 125 and 134 % of control
dose: 266.0 mg/kg/injection, schedule: Q01DX009 (ip), vehicle: carboxymethylcellulose (CMC)
  T/C: 133 % of control
[6]
  T/C: 129 % of control
dose: 600.0 mg/kg/injection, schedule: Q01DX001 (ip), vehicle: carboxymethylcellulose (CMC)
  T/C: 134 % of control

## C/C(=C\Br)CBr
dose: 200.0 mg/kg/injection, schedule: Q01DX009 (ip), vehicle: acetone
  survivor count: 0 of 6
dose: 400.0 mg/kg/injection, schedule: Q01DX009 (ip), vehicle: acetone
  survivor count: 0 of 6

## Cn1cc(Br)c2ccccc2c1=O
[3]
  survivor count: 2 of 6
[5]
  survivor count: 0 of 6

## C=C(Br)CNS(C)(=O)=O
dose: 50.0 mg/kg/injection, schedule: Q04DX003 (ip), vehicle: saline
  survivor count: 0 of 6
[7]
  survivor count: 0 of 6
[8]
  survivor count: 0 of 6
[9]
  survivor count: 0 of 6

## COc1cc(C=Nc2ccc(-c3csc(COc4ccccc4)n3)cc2)ccc1N(CCCl)CCCl
dose: 7.5 mg/kg/injection, schedule: Q01DX015 (ip), vehicle: carboxymethylcellulose (CMC)
  T/C: 125 % of control
dose: 14.0 mg/kg/injection, schedule: Q01DX015 (ip), vehicle: carboxymethylcellulose (CMC)
  T/C: 125 % of control
dose: 15.0 mg/kg/injection, schedule: Q01DX015 (ip), vehicle: carboxymethylcellulose (CMC)
  T/C: 146 % of control
dose: 22.0 mg/kg/injection, schedule: Q01DX015 (ip), vehicle: carboxymethylcellulose (CMC), evaluated on day 30
  T/C: 132 and 157 % of control
dose: 22.0 mg/kg/injection, schedule: Q01DX015 (ip), vehicle: carboxymethylcellulose (CMC), run until all animals had died
  T/C: 106 [5 of 6 alive] and 114 % of control [5 of 6 alive]
dose: 33.0 mg/kg/injection, schedule: Q01DX015 (ip), vehicle: carboxymethylcellulose (CMC)
  survivor count: 5 of 6
dose: 44.4 mg/kg/injection, schedule: Q01DX001 (ip), vehicle: carboxymethylcellulose (CMC)
  T/C: 138 % of control
dose: 75.0 mg/kg/injection, schedule: Q01DX015 (ip), vehicle: carboxymethylcellulose (CMC)
  survivor count: 3 of 6 and 4 of 6
dose: 100.0 mg/kg/injection, schedule: Q01DX001 (ip), vehicle: carboxymethylcellulose (CMC)
  T/C: 145 % of control
dose: 150.0 mg/kg/injection, schedule: Q01DX001 (ip), vehicle: carboxymethylcellulose (CMC)
  T/C: 127 % of control
[6]
  survivor count: 0 of 4

## O=C(CCl)Oc1ccccc1
[10]
  survivor count: 0 of 6
[11]
  survivor count: 0 of 6

## OC(COc1cccc2ccccc12)CN1CC=C(c2ccccc2)CC1 (stereo not drawn)
dose: 200.0 mg/kg/injection, schedule: Q01DX009 (ip), vehicle: Klucel (hydroxypropylcellulose) (HPC)
  survivor count: 0 of 6
dose: 400.0 mg/kg/injection, schedule: Q01DX009 (ip), vehicle: Klucel (hydroxypropylcellulose) (HPC)
  survivor count: 0 of 6

## CC(=O)Oc1ccc(C[n+]2ccccc2)cc1
dose: 50.0 mg/kg/injection, schedule: Q01DX009 (ip), vehicle: saline
  survivor count: 5 of 6
[7]
  survivor count: 0 of 6 and 1 of 6
[8]
  survivor count: 0 of 6
[9]
  survivor count: 0 of 6

## CC12CCC(C/C1=N\O)C2(C)C (stereo not drawn)
dose: 75.0 mg/kg/injection, schedule: Q01DX009 (ip), vehicle: saline with Tween-80
  survivor count: 0 of 6
dose: 150.0 mg/kg/injection, schedule: Q01DX009 (ip), vehicle: saline with Tween-80
  survivor count: 0 of 6
dose: 300.0 mg/kg/injection, schedule: Q01DX009 (ip), vehicle: saline with Tween-80
  survivor count: 0 of 6

## COC(=O)C(=O)c1c(-c2ccc[n+](Cc3ccccc3)c2)[nH]c2ccccc12
[12]
  survivor count: 0 of 6

## C=C(C)COC(=O)Nc1cccc(O)c1
dose: 400.0 mg/kg/injection, schedule: Q01DX001 (ip), vehicle: saline + alcohol
  survivor count: 3 of 6

## COc1ccc(NCC(O)CN2CCCC2)cc1 (stereo not drawn)
[4]
  survivor count: 3 of 6

## CC(C)(C)c1ccc(CC#N)cc1
dose: 100.0 mg/kg/injection, schedule: Q04DX003 (ip), vehicle: Klucel (hydroxypropylcellulose) (HPC)
  survivor count: 0 of 6
[3]
  survivor count: 0 of 6
[5]
  survivor count: 0 of 6

## O=C1C(=O)c2c3ccccc3cc3cccc1c23
[10]
  survivor count: 3 of 3

## O=C1OC(c2ccc3c(c2)OCO3)C(C(=O)CCl)c2ccccc21 (stereo not drawn)
[11]
  survivor count: 1 of 6

## CC1CC2OC(=O)C(O)(CO)C2CC2(C)C(=O)C=CC12 (stereo not drawn)
dose: 200.0 mg/kg/injection, schedule: Q04DX002 (ip), vehicle: saline
  survivor count: 1 of 3
dose: 400.0 mg/kg/injection, schedule: Q04DX002 (ip), vehicle: saline
  survivor count: 0 of 3

## c1cc[n+](CCNCC[n+]2ccccc2)cc1
[12]
  survivor count: 0 of 6

## O=[N+]([O-])c1ccc(Oc2cc(Cl)c(Cl)cc2Cl)c([N+](=O)[O-])c1
[1]
  survivor count: 6 of 6
[2]
  survivor count: 6 of 6

## CN(C)c1ccc(C(O)C(N)=O)cc1 (stereo not drawn)
dose: 100.0 mg/kg/injection, schedule: Q01DX001 (ip), vehicle: saline
  survivor count: 0 of 6
dose: 200.0 mg/kg/injection, schedule: Q01DX001 (ip), vehicle: saline
  survivor count: 0 of 6
[4]
  survivor count: 0 of 6

## O=C1OCC/C1=C\N1CCCCC1
dose: 200.0 mg/kg/injection, schedule: Q04DX002 (ip), vehicle: Klucel (hydroxypropylcellulose) (HPC)
  survivor count: 1 of 3
dose: 400.0 mg/kg/injection, schedule: Q04DX002 (ip), vehicle: Klucel (hydroxypropylcellulose) (HPC)
  survivor count: 0 of 3

## O=C(CBr)c1ccc(I)cc1
dose: 50.0 mg/kg/injection, schedule: Q01DX009 (ip), vehicle: saline with Tween-80
  survivor count: 6 of 6
dose: 100.0 mg/kg/injection, schedule: Q01DX009 (ip), vehicle: saline with Tween-80
  survivor count: 0 of 6
[6]
  survivor count: 2 of 4
